This is an account of results in article PMC3511393, “Identification and Characterisation of the RalA-ERp57 Interaction: Evidence for GDI Activity of ERp57” (PLoS ONE, 2012).

By UniProt entry, the sequences of proteins in these tests, tags left out. Where a name states a change or a piece, a line headed by the entry shows the natural chain unless it says otherwise.
UniProt P30101: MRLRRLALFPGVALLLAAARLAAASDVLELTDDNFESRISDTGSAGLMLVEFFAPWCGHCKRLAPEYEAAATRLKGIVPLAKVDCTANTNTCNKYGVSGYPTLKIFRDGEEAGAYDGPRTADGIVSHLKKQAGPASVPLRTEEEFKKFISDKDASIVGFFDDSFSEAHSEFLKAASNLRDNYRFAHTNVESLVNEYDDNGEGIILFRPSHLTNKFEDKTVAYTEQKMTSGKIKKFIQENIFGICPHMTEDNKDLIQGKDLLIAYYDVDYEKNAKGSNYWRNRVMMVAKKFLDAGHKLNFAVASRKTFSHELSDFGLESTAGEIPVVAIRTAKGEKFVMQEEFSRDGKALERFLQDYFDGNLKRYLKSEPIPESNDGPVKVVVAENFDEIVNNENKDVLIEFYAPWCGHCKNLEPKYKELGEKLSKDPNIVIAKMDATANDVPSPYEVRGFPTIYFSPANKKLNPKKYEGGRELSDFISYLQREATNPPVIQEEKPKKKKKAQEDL

These are yes or no findings as the source states them, for the method shown. Binding can be weak; no strength is given. Sequences can lack the tags named with a protein.

In this assay the target is T1, GST-RalA (simian) (UniProt P63320).
T1 sequence: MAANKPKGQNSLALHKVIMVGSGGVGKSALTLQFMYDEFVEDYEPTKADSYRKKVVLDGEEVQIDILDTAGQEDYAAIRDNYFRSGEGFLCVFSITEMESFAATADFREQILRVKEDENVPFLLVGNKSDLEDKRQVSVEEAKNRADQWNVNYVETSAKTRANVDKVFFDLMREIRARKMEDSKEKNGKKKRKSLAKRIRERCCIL
Nature of the assay: pull-down; GST-RalA loaded with GDP as bait; purified 6xHis-ERp57 or mutants; Western blot with anti-6xHis antibody; with or without 1 mM DTT; both purified. A general note: Immunoblotting shows a protein as a band on a membrane.

Turning to “6xHis-ERp57 a+a' double domain mutant (from UniProt P30101)”, the binding entry is given as “binds”.

Turning to “6xHis-ERp57 a' domain mutant (from UniProt P30101)”, the binding result was “binds”.

“6xHis-ERp57 a domain mutant (from UniProt P30101)”: the binding result is listed as “binds”.
